Reference: paper doi:10.1101/409748
These are yes or no findings as the source states them, for the method shown. In cells and extracts the contact can be indirect. Some entries that bind do so weakly or less than the wild type. Tags and fused reporters may be left off the sequences shown.

Amino acid sequences for entries named in this document (tags omitted).
UniProt Q08122: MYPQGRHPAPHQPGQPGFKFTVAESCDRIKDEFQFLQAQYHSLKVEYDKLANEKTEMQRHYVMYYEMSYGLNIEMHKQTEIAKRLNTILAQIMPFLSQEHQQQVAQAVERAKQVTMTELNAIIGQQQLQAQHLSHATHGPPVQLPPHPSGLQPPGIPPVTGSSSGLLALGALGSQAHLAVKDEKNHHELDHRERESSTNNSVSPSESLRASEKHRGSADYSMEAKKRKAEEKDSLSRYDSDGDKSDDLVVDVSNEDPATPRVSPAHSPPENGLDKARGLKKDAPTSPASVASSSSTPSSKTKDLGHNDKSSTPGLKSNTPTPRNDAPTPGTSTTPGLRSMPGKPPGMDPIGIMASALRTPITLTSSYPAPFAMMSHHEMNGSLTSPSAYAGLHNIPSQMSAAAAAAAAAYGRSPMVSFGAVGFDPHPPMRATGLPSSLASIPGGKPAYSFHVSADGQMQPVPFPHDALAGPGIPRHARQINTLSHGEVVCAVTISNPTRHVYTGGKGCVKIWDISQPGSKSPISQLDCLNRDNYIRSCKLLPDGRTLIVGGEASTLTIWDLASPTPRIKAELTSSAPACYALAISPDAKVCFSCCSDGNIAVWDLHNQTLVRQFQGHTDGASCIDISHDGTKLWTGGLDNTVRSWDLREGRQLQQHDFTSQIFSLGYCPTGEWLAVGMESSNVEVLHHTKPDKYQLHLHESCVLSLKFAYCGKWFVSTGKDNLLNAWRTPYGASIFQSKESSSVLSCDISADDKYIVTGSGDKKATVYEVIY

How the values were obtained:
Assay in all cases: co-IP
[1] = molecular target: T1, EBF1-V5 (UniProt Q07802)
T1 sequence: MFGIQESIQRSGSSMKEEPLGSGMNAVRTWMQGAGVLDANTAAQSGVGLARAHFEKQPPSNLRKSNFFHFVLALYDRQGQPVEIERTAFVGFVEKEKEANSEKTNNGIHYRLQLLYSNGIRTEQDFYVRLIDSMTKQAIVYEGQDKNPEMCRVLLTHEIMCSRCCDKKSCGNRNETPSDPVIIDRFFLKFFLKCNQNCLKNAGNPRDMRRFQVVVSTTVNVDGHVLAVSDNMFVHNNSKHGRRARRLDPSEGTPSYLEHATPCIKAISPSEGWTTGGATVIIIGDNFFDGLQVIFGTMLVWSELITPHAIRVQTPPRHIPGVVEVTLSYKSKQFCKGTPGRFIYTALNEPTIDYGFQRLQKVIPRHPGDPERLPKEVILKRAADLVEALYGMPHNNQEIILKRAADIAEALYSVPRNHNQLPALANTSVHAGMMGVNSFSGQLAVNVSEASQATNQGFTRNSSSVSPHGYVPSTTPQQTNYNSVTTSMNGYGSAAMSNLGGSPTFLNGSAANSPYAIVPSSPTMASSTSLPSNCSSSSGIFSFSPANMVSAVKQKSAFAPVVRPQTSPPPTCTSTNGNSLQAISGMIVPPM

[2] = molecular target: T2, EBF2-V5 (UniProt O08792)
T2 sequence: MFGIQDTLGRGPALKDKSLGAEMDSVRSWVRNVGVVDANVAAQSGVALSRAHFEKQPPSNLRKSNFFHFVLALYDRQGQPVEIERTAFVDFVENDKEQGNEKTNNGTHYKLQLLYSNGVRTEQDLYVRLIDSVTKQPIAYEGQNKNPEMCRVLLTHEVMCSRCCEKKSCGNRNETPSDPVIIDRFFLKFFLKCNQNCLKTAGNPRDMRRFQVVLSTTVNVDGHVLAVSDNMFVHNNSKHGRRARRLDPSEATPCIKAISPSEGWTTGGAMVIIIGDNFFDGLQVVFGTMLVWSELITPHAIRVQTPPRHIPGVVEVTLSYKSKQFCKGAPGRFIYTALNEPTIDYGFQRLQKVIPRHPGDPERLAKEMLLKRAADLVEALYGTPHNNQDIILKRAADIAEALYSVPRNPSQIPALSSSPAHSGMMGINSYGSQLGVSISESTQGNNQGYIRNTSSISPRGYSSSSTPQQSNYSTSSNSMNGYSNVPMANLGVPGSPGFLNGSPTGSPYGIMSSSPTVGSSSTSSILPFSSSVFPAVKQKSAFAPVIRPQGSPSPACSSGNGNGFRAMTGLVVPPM

[3] = molecular target: T3, EBF3-V5 (UniProt O08791)
T3 sequence: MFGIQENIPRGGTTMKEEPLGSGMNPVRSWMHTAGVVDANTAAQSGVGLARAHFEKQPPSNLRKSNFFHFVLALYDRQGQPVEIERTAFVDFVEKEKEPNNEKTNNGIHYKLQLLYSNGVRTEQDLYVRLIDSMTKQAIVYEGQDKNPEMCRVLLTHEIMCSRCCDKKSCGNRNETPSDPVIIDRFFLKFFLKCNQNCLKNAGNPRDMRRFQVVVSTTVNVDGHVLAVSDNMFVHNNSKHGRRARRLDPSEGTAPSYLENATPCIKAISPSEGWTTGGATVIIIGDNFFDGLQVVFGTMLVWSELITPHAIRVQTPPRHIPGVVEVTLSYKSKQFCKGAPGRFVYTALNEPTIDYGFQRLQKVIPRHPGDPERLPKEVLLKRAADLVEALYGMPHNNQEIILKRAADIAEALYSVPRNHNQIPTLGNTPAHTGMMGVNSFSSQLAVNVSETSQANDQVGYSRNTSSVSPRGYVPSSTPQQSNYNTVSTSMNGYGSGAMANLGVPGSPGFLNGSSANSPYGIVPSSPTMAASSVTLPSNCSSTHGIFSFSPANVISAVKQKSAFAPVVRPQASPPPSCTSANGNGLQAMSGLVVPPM

Measured: binding

Flag-TLE3 (from UniProt Q08122 1-772)
binds: all assays above
